According to patent US20170273922A1, “UREA AND BIS-UREA BASED COMPOUNDS AND ANALOGUES THEREOF USEFUL IN THE TREATMENT OF ANDROGEN RECEPTOR MEDIATED DISEASES OR DISORDERS” (THE ROYAL INSTITUTION FOR THE ADVACEMENT OF LEARNING/MCGILL …, priority 2014, published 2017):
Some entries share one result that the patent states for a list of compounds.

Molecular target: T1, AR-v7 in LNCaP cells (Homo sapiens, UniProt P10275)
T1 sequence (P10275 1-644 isoform P10275-3): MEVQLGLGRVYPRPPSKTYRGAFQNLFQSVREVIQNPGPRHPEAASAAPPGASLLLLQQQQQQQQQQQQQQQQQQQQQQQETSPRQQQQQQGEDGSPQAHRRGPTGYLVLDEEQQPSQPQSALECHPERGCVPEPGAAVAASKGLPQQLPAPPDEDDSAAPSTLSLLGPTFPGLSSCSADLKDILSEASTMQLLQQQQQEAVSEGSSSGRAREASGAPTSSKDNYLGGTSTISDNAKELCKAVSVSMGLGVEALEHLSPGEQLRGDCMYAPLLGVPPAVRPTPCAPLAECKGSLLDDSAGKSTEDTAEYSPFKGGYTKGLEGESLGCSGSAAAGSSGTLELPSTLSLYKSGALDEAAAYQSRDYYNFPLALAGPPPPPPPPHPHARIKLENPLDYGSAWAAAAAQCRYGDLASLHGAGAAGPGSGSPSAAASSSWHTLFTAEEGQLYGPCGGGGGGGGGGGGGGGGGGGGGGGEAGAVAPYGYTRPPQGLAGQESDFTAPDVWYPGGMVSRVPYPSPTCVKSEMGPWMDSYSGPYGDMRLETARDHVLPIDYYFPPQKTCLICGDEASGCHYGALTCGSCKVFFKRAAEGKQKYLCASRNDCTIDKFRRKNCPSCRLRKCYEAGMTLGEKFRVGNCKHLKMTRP
Assay: PSA-luc reporter assay in LNCaP cells transiently transfected with pIRES-AR-v7
Settings: compounds at 2.5 μM compared with EPI at 25 μM

greater inhibitory activity than EPI	SMILES
at least 10 fold	O=C(N/C=C/c1cccc(C(F)(F)F)c1)Nc1ccncn1 [Compound 562]
at least 10 fold	O=C(Nc1cccc(C(F)(F)F)c1)Nc1ccc(NC(=O)c2ccccc2F)c(C(F)(F)F)c1 [Compound 746]
